Experimental data taken from PubChem BioAssay AID540276 (National Center for Advancing Translational Sciences (NCATS), 2011).
The campaign covered roughly 300,000 compounds. About 5,400 (1.8%) were called active. This list was built around the results that the source calls inconclusive (neither active nor inactive); the mix of calls is not that of the screen. Calls come from the whole dose curve; tested in HEK293 cells. Potencies of inconclusive entries are doubtful fits and often do not repeat.

Assay: qHTS for inhibitors of binding or entry into cells for Marburg Virus
Settings: Marburg virus pseudotyped entry inhibition, cell reporter; activity change, negative = inhibition: at 37.8 µM (top of the series) unless noted
% is set by controls: 0 for no effect and ±100 for the full control effect; potency is the fitted concentration of half-maximal effect.

SMILES | activity change, negative = inhibition | Potency
O=C(Nc1cc2c(oc1=O)CCCC2=O)c1ccc(Cl)cc1 | inactive: -2.96% | 
COc1cccc(CCNC(=O)CCc2nnc(-c3cc(C)oc3C)o2)c1 | inactive: -2.06% [at 46.1 µM] | 
O=C(NC1CCCC1)C(c1ccccc1)N(Cc1ccco1)C(=O)Cc1cccs1 (stereo not drawn) | inactive: -22.8% | 
COc1cccc(NC(=O)CSc2nc3n[nH]c(C)c3c(=N)n2-c2cccc(OC)c2)c1 |  | inconclusive: 31.6 µM [inhibitor, single point]
C/C(=N\NC(=O)C1COc2ccccc2O1)c1ccccn1 (stereo not drawn) |  | inconclusive: 7.08 µM [inhibitor, full curve, poor fit]
CCCCCC(O)(CCN1CCCCC1)c1ccc(OCC)cc1 (stereo not drawn) |  | inconclusive: 0.891 µM [inhibitor, full curve, poor fit]
O=C(Nc1ccc2c(c1)OCCO2)C(=O)c1c[nH]c2ccccc12 |  | inconclusive: 2.51 µM [inhibitor, full curve, poor fit]
NC(=O)COC(=O)c1cc(Cl)cc(Cl)c1N |  | inconclusive: 6.31 µM [activator, partial curve, poor fit]
O=C(c1nn(Cc2ccccc2)c(=O)c2ccccc12)N1CCc2ccccc2C1 |  | inconclusive: 35.5 µM [inhibitor, single point]
CC1CCN(S(=O)(=O)c2ccc(NC(=O)CN3C(=O)NC(C)(c4ccccc4)C3=O)cc2)CC1 (stereo not drawn) |  | inconclusive: 35.5 µM [inhibitor, single point]
COc1ccc2nc(/N=C(\N)NC(=O)C(C)(C)C)nc(C)c2c1 |  | inactive
COCCCn1c(=S)[nH]c2sc3c(c2c1=O)CCCS3 |  | inconclusive: 3.16 µM [activator, full curve]
O=C/C=C/c1c(-c2ccccc2)cc2oc3ccccc3cc1-2 | inactive: -23.1% [at 46.1 µM] | 
COc1ccc(/C=N/NC(=O)c2cccnc2)cc1COc1ccc([N+](=O)[O-])c(C)c1 |  | inconclusive: 2 µM [inhibitor, partial curve, poor fit]
CC(C)COC(=O)/C(C#N)=C/c1c[nH]c2ccccc12 |  | inconclusive: 20 µM [activator, single point]
CCn1c(SC(C)C(=O)Nc2nccs2)nnc1-c1ccncc1 (stereo not drawn) | inactive: 6.07% | 
O=C(NC1CCCCC1)C(c1ccccc1)N(C(=O)c1cccs1)c1ccc2c(c1)OCO2 (stereo not drawn) | inactive: -17.2% | 
O=C(c1ccco1)N1CCN(C2c3ccccc3-c3ccccc32)CC1 |  | inconclusive: 31.6 µM [inhibitor, single point]
COc1nc(N)nc(NC23CC4CC(CC(C4)C2)C3)n1 | inactive: -3.83% | 
c1csc(C2=NC(c3ccncc3)=Nc3ccccc3N2)c1 |  | inconclusive: 12.6 µM [activator, partial curve, poor fit]
Cc1cc(C)n(C(=O)CCC(=O)Nc2ccc(C)c(C)c2)n1 | inactive: -1.56% | 
COc1ccc(C(=O)Nc2sc(C)c(C)c2CN2CC(C)OC(C)C2)cc1 (stereo not drawn) |  | inconclusive: 0.794 µM [activator, single point]
C=C1c2ccccc2NC(=S)N1Cc1ccc2c(c1)OCO2 |  | inconclusive: 11.2 µM [inhibitor, partial curve]
CCOc1ccccc1NC(=O)c1ccc2[nH]c(C)c(C)c2c1 |  | inconclusive: 5.62 µM [activator, single point]
CS(=O)(=O)N1CCC(C(=O)Nc2cccc(C(F)(F)F)c2)CC1 | inactive: -8.49% | 

SMILES | activity change, negative = inhibition | Potency
O=[N+]([O-])c1ccc(NCCNc2ccc(Cl)nn2)cc1 | inactive: -20.4% | 
CCN(CCn1cccn1)C(=O)c1cc(COc2ccc(F)cc2Cl)on1 | inactive: 6.95% [at 46.1 µM] | 
CCc1ccc2c(CN3CC=C(c4ccccc4)CC3)cc(=O)oc2c1 | inactive: -7.7% | 
CCCSc1oc(-c2cccs2)nc1S(=O)(=O)c1ccc(Cl)cc1 | inactive: 2.45% [at 46.1 µM] | 
Cc1ccc(-c2cc(C(=O)Nc3c(C)n(C)n(-c4ccccc4)c3=O)[nH]n2)c(O)c1C |  | inconclusive: 12.6 µM [inhibitor, single point]
Oc1ccccc1NCC(O)Cn1ccc2ccccc21 (stereo not drawn) |  | inconclusive: 14.6 µM [activator, partial curve]
CN(C(=O)c1coc(=O)c2ccccc12)c1ccc(F)cc1 |  | inconclusive: 6.31 µM [inhibitor, full curve, poor fit]
Cc1nn(C(C)(C)C)c(OC(=O)c2cccs2)c1S(=O)(=O)c1ccccc1 |  | inconclusive: 20 µM [inhibitor, partial curve, poor fit]
COc1ccccc1NS(=O)(=O)c1cc(NC(=O)c2sccc2C)ccc1N1CCCC1 |  | inconclusive: 8.91 µM [inhibitor, partial curve, poor fit]
Cc1ccc(CNC(=O)C(=O)NCCC2CCCCN2S(=O)(=O)c2ccc(C)cc2)cc1 (stereo not drawn) |  | inconclusive: 20 µM [inhibitor, single point]
COc1ccc(-c2cc(=O)oc3cc4occ(C)c4cc23)cc1 | inactive: -0.825% | 
Cc1c(C(=O)NN)nn(-c2ccc(Cl)cc2)c(=O)c1C#N |  | inconclusive: 1.26 µM [inhibitor, full curve, poor fit]
Cc1ccc(C)c(NC(=O)C(OC(=O)c2ccc(C)s2)c2ccccc2)c1 (stereo not drawn) |  | inconclusive: 1.26 µM [inhibitor, single point]
O=C(COC(=O)CNC(=O)c1ccco1)NCc1ccc(F)cc1 | inactive: -0.209% [at 46.1 µM] | 
O/N=C(\c1ccccn1)C1CC1c1ccccc1 (stereo not drawn) | inactive: 5.53% [at 46.1 µM] | 
COc1ccc(/C=C/C(=O)c2ccccc2)cc1Cn1nnc2ccccc21 |  | inconclusive: 35.5 µM [inhibitor, partial curve, poor fit]
O=C1CC(Sc2cccs2)C(=O)N1c1ccccc1 (stereo not drawn) | inactive: -9.7% [at 46.1 µM] | 
CC(=O)Nc1ccc(OC(=O)c2cccs2)cc1 | inactive: -1.08% | 
CCC(=O)Nc1nnc(SCC(=O)Nc2ccc3c(c2)OCO3)s1 | inactive: 29.7% | 
O=[N+]([O-])c1cccnc1NCCc1ccccc1 |  | inconclusive: 35.5 µM [activator, single point]
COc1ccc(N2CCN(Cc3cc(=O)oc4cc5c(cc34)CCCC5)CC2)cc1 | inactive: 0.198% | 
COc1ccc(CCNC(=O)CCCn2c(=O)c3ccccc3n(Cc3ccc(F)cc3Cl)c2=O)cc1OC | inactive: 1.97% [at 46.1 µM] | 
COc1ccc(-c2nc3cc(NC(=O)Cc4ccc(OC)c(OC)c4)ccc3o2)cc1 |  | inconclusive: 16.4 µM [inhibitor, single point]
Cn1c(CN2CCN(CC#N)CC2)c(C#N)c2ccccc21 |  | inconclusive: 35.5 µM [activator, single point]
Cc1cccc(-c2noc(CN(C(=O)c3ccccc3Cl)C(C)C)n2)c1 | inactive: -6.77% [at 46.1 µM] | 

SMILES | activity change, negative = inhibition | Potency
CC(=O)Nc1ccc(NC(=O)C(C)OC(=O)/C=C/c2cccs2)cc1 (stereo not drawn) |  | inconclusive: 31.6 µM [inhibitor, single point]
Fc1c(F)c(F)c(N2CCNCC2)c(F)c1F |  | inconclusive: 20 µM [activator, single point]
Cc1ccc(C)c(C(=O)Nc2ccncc2)c1 | inactive: -5.91% | 
CN(C1CCCC1)C1CCN(C(=O)CNC(=O)/C=C/c2ccccc2)CC1 |  | inconclusive: 6.51 µM [activator, single point]
C=CCn1c(SCC(=O)Nc2ccc(S(N)(=O)=O)cc2)nnc1-c1cnccn1 |  | inconclusive: 0.631 µM [activator, partial curve, poor fit]
c1ccc(-n2cnnc2SCc2cn3ccsc3n2)cc1 |  | inconclusive: 0.291 µM [inhibitor, partial curve, poor fit]
CCOc1ccccc1Nc1nnc(SCc2nnc(-c3cc(OC)c(OC)c(OC)c3)o2)s1 |  | inconclusive: 17.8 µM [inhibitor, single point]
O=C(CCCN1C(=O)/C(=C/c2ccccc2Cl)SC1=S)NNC(=O)c1ccccc1Cl |  | active: 6.31 µM
CC(=O)c1nn(-c2ccccc2)cc1C(=O)c1ccc(Br)cc1 |  | inconclusive: 7.08 µM [inhibitor, full curve, poor fit]
CCN1C(=O)C2(Nc3ccccc3-c3nc4ccccc4n32)c2cc(OC)ccc21 (stereo not drawn) |  | inconclusive: 25.1 µM [inhibitor, single point]
CC(C)(Oc1ccc(Cl)cc1)C(=O)O/N=C(\N)c1ccncc1 | inactive: 16.3% [at 46.1 µM] | 
CN(c1ccc(F)cc1)S(=O)(=O)c1ccc(Cl)c(C(=O)Nc2ccc3c(c2)CCC3)c1 | inactive: -28.7% | 
CCN(c1ccc(C)cc1)S(=O)(=O)c1nnc(NC(=O)c2ccco2)s1 | inactive: -17.1% [at 46.1 µM] | 
Cc1cc2oc(=O)c(CC(=O)O)c(C)c2c2occ(-c3ccc(F)cc3)c12 |  | inconclusive: 1 µM [activator, full curve, poor fit]
O=C(O)c1ccc(N2CCCCCC2)c(N2C(=O)c3ccccc3C2=O)c1 | inactive: -15.7% | 
COc1ccc(NS(=O)(=O)c2cc(Br)cc3c2N(C(C)=O)CC3)cc1 |  | inconclusive: 10 µM [inhibitor, partial curve, poor fit]
O=C(CN1c2cccc3cccc(c23)S1(=O)=O)Nc1ccccc1F |  | inconclusive: 25.1 µM [activator, single point]
O=C(NCC(c1cccs1)N1CCOCC1)c1cccc([N+](=O)[O-])c1 (stereo not drawn) | inactive: -22.7% | 
O=S(=O)(c1ccccc1)c1cc(O)ccc1O | inactive: -2.77% [at 46.1 µM] | 
COc1ccc(-c2csc3nc(C)n(-n4cccc4)c(=O)c23)cc1OC |  | inconclusive: 5.17 µM [inhibitor, partial curve, poor fit]
CCCCc1nnc(NC(=O)CSc2nc(O)c(Cc3ccccc3)c(=O)[nH]2)s1 | inconclusive: 37.1% [activator] [at 46.1 µM] | 
Cc1ccc(C)n1-c1nn(S(=O)(=O)c2cccc3cccnc23)c2cccc(F)c12 |  | inconclusive: 35.5 µM [inhibitor, single point]
CN(C)/C=C1/C(=O)NC(=O)N(CCNc2ncc(C(F)(F)F)cc2Cl)C1=O |  | inconclusive: 0.316 µM [inhibitor, full curve, poor fit]

In the list so far, two contain a tert-butyl group.
SMILES | activity change, negative = inhibition | Potency
COc1ccc2nc(/N=C(\N)NC(=O)C(C)(C)C)nc(C)c2c1 |  | inactive
Cc1nn(C(C)(C)C)c(OC(=O)c2cccs2)c1S(=O)(=O)c1ccccc1 |  | inconclusive: 20 µM [inhibitor, partial curve, poor fit]

Structural class: those above containing bromine (2)
SMILES | activity change, negative = inhibition | Potency
CC(=O)c1nn(-c2ccccc2)cc1C(=O)c1ccc(Br)cc1 |  | inconclusive: 7.08 µM [inhibitor, full curve, poor fit]
COc1ccc(NS(=O)(=O)c2cc(Br)cc3c2N(C(C)=O)CC3)cc1 |  | inconclusive: 10 µM [inhibitor, partial curve, poor fit]
